The structures appear in SMILES notation. “And” between values parts separate entries of the source, which are not always exact repeats. Identical values can stand only once. For some of these results: Most of the hits are listed elsewhere, so they are rarer here than in the full data. Results filed as inconclusive are left out. The list shows a part of the results, in another mix than the full data. The source made the active and inactive calls. Unless noted, calls follow the shape of the full dose curve.

By UniProt entry, the sequences of proteins in these tests, tags left out. Where a name states a change or a piece, a line headed by the entry shows the natural chain unless it says otherwise.
UniProt P03372, whole entry, looked up: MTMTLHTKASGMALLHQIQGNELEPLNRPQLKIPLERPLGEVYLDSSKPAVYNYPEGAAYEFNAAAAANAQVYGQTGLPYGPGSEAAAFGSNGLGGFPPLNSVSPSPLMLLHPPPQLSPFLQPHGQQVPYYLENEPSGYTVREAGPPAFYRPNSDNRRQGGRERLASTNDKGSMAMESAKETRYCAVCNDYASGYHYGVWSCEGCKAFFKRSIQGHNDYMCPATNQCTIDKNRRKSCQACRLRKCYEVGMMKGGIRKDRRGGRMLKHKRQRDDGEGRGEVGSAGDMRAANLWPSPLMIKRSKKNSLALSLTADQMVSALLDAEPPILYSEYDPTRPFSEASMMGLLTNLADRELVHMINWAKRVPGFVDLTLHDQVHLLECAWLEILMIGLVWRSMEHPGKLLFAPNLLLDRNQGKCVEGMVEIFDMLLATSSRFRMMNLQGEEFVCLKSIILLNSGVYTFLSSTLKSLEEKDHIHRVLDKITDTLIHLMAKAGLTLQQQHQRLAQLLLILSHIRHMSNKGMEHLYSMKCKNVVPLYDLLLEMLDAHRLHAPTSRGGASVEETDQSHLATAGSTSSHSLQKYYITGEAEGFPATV
UniProt Q03181: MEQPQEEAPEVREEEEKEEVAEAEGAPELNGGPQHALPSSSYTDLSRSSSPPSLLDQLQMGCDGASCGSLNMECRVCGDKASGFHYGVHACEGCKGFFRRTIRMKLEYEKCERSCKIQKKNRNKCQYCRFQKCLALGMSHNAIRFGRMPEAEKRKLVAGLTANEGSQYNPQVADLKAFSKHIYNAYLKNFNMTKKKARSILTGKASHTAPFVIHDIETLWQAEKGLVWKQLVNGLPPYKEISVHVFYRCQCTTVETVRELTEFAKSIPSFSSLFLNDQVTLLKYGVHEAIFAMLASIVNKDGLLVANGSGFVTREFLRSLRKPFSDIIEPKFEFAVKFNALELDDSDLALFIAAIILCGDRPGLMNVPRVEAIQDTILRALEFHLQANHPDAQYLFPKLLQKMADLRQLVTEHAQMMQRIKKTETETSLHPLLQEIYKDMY
UniProt P19793: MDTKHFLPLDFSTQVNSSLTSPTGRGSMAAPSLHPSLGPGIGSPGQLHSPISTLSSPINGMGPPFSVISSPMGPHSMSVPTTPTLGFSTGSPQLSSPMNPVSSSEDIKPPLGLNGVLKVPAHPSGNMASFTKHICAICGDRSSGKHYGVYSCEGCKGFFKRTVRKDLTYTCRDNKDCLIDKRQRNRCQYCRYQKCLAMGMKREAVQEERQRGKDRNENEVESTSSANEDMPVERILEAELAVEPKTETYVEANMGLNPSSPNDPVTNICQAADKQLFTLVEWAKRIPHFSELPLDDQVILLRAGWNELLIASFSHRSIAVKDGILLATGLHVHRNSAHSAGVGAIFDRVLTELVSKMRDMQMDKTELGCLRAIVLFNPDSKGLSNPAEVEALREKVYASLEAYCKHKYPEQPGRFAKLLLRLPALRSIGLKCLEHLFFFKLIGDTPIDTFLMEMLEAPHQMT

Test [1] can be described thus: Cell Viability - LYMP1-002 - Assay at 24 hr (AID 993; active = well fitted cell-killing curve with a large enough effect; also: % is scaled to controls: 0 for no effect and ±100 for the full control effect). To be noted: LYMP1-002 lymphoblastoid cells viability; at 92.2 µM (top of the series). The gist of the method: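 qHTS, LYMP1-002 lymphoblastoid, 24 h cpd, 37 C, CellTiter-Glo ATP luminescence; AC50 via Hill eq.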
Test [2] in a line: Cell Viability - LYMP1-002 - Assay at 40 hr (AID 994; active = well fitted cell-killing curve with a large enough effect;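 also: 0% = DMSO only and full inhibition = 92 µM tetraoctylammonium bromide; nearly all actives have a fitted effect of over 60% in size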). To be noted: LYMP1-002 lymphoblastoid cell viability; at 92.2 µM (top of the series). The gist of the method:
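Viability in the human lymphoblastoid line was measured as intracellular ATP via CellTiter-Glo after 40 hr compound exposure. Tetraoctylammonium bromide served as positive control.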

A short description of test [3]: qHTS Assay for Identification of Small Molecule Inducers of Hypoxia Response (AID 2120; active = well fitted curve in the direction sought with a large enough effect in the signal ratio, with a control signal flat, not every such curve was filed as active; the % refers to the signal ratio; also: 0% is about no effect). Conditions: hypoxia response reporter cells, beta-lactamase ratio readout; at 104 µM (top of the series). In outline: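 Induction of beta-lactamase reporter activity was measured in CellSensor HRE-bla ME-180 cells after 17 h compound treatment at 37 degrees C, using CCF4 substrate and the 460nm/530nm emission ratio to derive AC50 values.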
(In general: In qHTS, concentration-response curves come from the screen itself.)

Test [4] has as its target Estrogen receptor (Homo sapiens) (UniProt P03372). Description: qHTS assay for small molecule antagonists of estrogen receptor alpha signaling (AID 588513; active = well fitted curve in the direction sought with a large enough effect in the signal ratio, with a control signal flat, not every such curve was filed as active; the % refers to the signal ratio; also: % is scaled to controls: 0 for no effect and ±100 for the full control effect). To be noted: ER-alpha-UAS-bla HEK293, beta-lactamase ratio, antagonist mode; at 76.9 µM (top of the series). In outline: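 Beta-lactamase reporter, antagonist mode, HEK 293 GripTite cells; 0.5nM E2 stimulus, 18 h, 37 C; CCF4 dye 2 h RT; fluorescence. IC50 and efficacy from Hill fits, normalized to E2 and DMSO.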

For test [5] the target is unchanged. Description: qHTS assay for small molecule agonists of estrogen receptor alpha signaling (AID 588514).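 Also: 0% = vehicle only and 100% = reference agonist; nearly all actives have a fitted effect of over 70% in size.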 To be noted: ER-alpha-UAS-bla HEK293, beta-lactamase ratio, 18 h, percent of full estradiol response, vehicle zero; at 76.8 µM (top of the series). In outline:
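Reporter-gene assay. […] controls beta-lactamase in HEK 293 GripTite cells; after 18 hrs with compound, CCF4 substrate is added for 2 hrs and fluorescence is read.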

For test [6], the target named is Glucocorticoid receptor (Homo sapiens) (UniProt P04150). Description: qHTS assay for small molecule agonists of glucocorticoid receptor signaling (AID 588532; active = well fitted curve in the direction sought with a large enough effect in the signal ratio, with a control signal flat; the % refers to the signal ratio;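 also: 100% = dexamethasone at 0.1 µM and 0% = DMSO only wells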). Conditions: HeLa MMTV-bla, beta-lactamase ratio, agonist, 18 h; stronger effect = higher value; percent of dexamethasone control, DMSO zero. The gist of the method: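 Quantitative HTS using CellSensor MMTV-bla HeLa cells in charcoal/dextran-treated serum; compounds tested up to 92 uM. After 18 h at 37 C, CCF4 dye reported reporter induction.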

Test [7] shares this target. Briefly: qHTS assay for small molecule antagonists of glucocorticoid receptor signaling (AID 588533; active = well fitted inhibition curve with a large enough effect in the signal ratio, with a control signal flat, not every such curve was filed as active; the % refers to the signal ratio;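 also: cells stimulated with 2 nM dexamethasone as agonist; % is scaled to controls: 0 for no effect and ±100 for the full control effect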). Conditions: HeLa MMTV-bla, GRE beta-lactamase ratio, antagonist mode, 18 h; at 76.8 µM (top of the series). The gist of the method: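 Antagonist-mode qHTS: compound titrations added to GRE-bla HeLa cells, then dexamethasone 2 nM final; 18 h, 37 C. CCF4 FRET fluorescence normalized to dexamethasone and DMSO; IC50 from Hill fit.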

Test [8] has as its target Peroxisome proliferator-activated receptor delta (Homo sapiens) (UniProt Q03181). Description: qHTS assay for small molecule agonists of peroxisome proliferator-activated receptor delta signaling (AID 588534).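 Also: 0% = DMSO basal wells and 100% = positive control agonist at 10 µM.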 To be noted: HEK293T PPARdelta-UAS-bla, beta-lactamase ratio, 18 h; at 76.7 µM (top of the series). In outline: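 Reporter cells were plated and held 5 hrs at 37 C before compounds were added. After 18 hrs at 37 C, CCF4 dye was loaded for 2 hrs at RT and fluorescence measured.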

Test [9] can be described thus: qHTS assay for small molecule antagonists of peroxisome proliferator-activated receptor delta signaling (AID 588535; active = well fitted inhibition curve with a large enough effect in the signal ratio, with a control signal flat, not every such curve was filed as active; the % refers to the signal ratio;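 as to max response: cells co-treated with a PPAR-delta agonist as stimulator during compound exposure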). To be noted: HEK293T PPARd-UAS-bla, beta-lactamase FRET ratio, 18 h; 460 nm channel. The gist of the method:
(§1)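 Cell-based beta-lactamase assay in antagonist mode: 4000 HEK293T PPAR-delta-UAS-bla cells per well, 5 hr preincubation then 18 hr compound incubation at 37 C. IC50 obtained by Hill equation fitting.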

For test [10], the target named is Peroxisome proliferator-activated receptor delta (Homo sapiens) (UniProt Q03181). The description is as above. Conditions: HEK293T PPARd-UAS-bla, beta-lactamase FRET ratio, 18 h; at 76.7 µM (top of the series). In outline:
as §1

Test [11] deals with Peroxisome proliferator-activated receptor gamma (Homo sapiens) (UniProt P37231). Briefly: qHTS assay for small molecule agonists of peroxisome proliferator-activated receptor gamma signaling (AID 588536; active = well fitted curve in the direction sought with a large enough effect in the signal ratio, with a control signal flat, not every such curve was filed as active; the % refers to the signal ratio;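 also: 0% = DMSO basal wells and 100% = rosiglitazone at 2 µM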). Conditions: HEK293 PPARg-UAS-bla, beta-lactamase ratio, 16 h, percent of rosiglitazone response, DMSO as zero; at 76.7 µM (top of the series). In outline:
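HEK293 UAS-bla reporter line, 1% charcoal/dextran FBS; titration, 16 h, 37 C; CCF4 loading 2 h RT; fluorescence 460/530 nm. Normalized to rosiglitazone 2 uM = 100%, DMSO = 0%.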

The target is the same in test [12]. Description: qHTS assay for small molecule antagonists of peroxisome proliferator-activated receptor gamma signaling (AID 588537; active = well fitted inhibition curve with a large enough effect in the signal ratio, with a control signal flat, not every such curve was filed as active; the % refers to the signal ratio;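 also: reporter cells co-stimulated with 50 nM rosiglitazone agonist during compound treatment; % of control where 0% means no effect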). To be noted: HEK293 PPARg-UAS-bla, beta-lactamase ratio, antagonist mode; at 76.8 µM (top of the series). In outline: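 Inhibitors of agonist-stimulated UAS-bla reporter activity were sought in HEK293 cells; rosiglitazone (50 nM) defined full signal and DMSO baseline. Curves fitted to Hill model gave IC50 and efficacy.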

Test [13] concerns the target Vitamin D3 receptor (Homo sapiens) (UniProt P11473). Description: qHTS assay for small molecule antagonists of vitamin D receptor signaling (AID 588541).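 Also: receptor activated by calcitriol during compound treatment; % is scaled to controls: 0 for no effect and ±100 for the full control effect.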 To be noted: HEK293T VDR-UAS-bla, beta-lactamase ratio, antagonist mode; at 76.7 µM (top of the series). In outline: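 Antagonist-mode beta-lactamase reporter assay: HEK293T VDR-UAS-bla cells were exposed to titrated compound alongside 1-alpha,25-dihydroxyvitamin D3 at 3 nM final for 16 h. Values were normalized to the 50 nM agonist control and DMSO basal, with IC50 and efficacy from Hill equation fits.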

Test [14] has the same target. Description: qHTS assay for small molecule agonists of vitamin D receptor signaling (AID 588543).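 Also: 0% = DMSO basal and 100% = reference agonist control.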 To be noted: HEK293T VDR-UAS-bla, beta-lactamase ratio, 16 h; at 76.8 µM (top of the series). The gist of the method: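 β-lactamase reporter, VDR-UAS-bla HEK293T, agonist mode. Cells plated 5 h at 37 °C, compound titration 16 h at 37 °C, CCF4 dye 2 h RT, ratio 460/530 nm. Hill fit → EC50, efficacy vs 50 nM 1α,25-(OH)2D3.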

A short description of test [15]: qHTS assay for small molecule agonists of retinoid X receptor alpha signaling (AID 588544).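 As to activation: 0% = DMSO basal wells and 100% = reference agonist.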 Conditions: HEK293T RXRa-UAS-bla, beta-lactamase reporter, 18 h; 530 nm emission.
In test [16] the target is Retinoic acid receptor RXR-alpha (Homo sapiens) (UniProt P19793). Described as above. Conditions: HEK293T RXRa-UAS-bla, beta-lactamase reporter, 18 h; at 76.7 µM (top of the series).

For `Nc1ccc(N)c([N+](=O)[O-])c1`, the activity change, negative = cytotoxicity in [1] was inactive: -3.9%. The viability change, negative = cytotoxic in test [2] is inactive: -14.4%. Besides, the activation in test [3] was inactive: 0.685%; in test [5], inactive: -2.32% and inactive: 3.42%; in test [6] it was inactive: 2.63% and inactive: 1.7%; in test [8], inactive: -1.21% and inactive: -11.4%; in [11], inactive: 0.636% and inactive: 8%; in [14], inactive: 2.07% and inactive: -3.81%. The activation in test [16] was inactive: -5.43%. In addition, the activity, negative = inhibition in [4] is inactive: 15.1%; in [12], inactive: -3.62%. Moreover, the activity change, negative = inhibition is inactive: 28.4% in test [7]; inactive: -1.02% and inactive: 1.7% in test [10]; inactive: 7.87% and inactive: -0.542% in test [13]. The max response is -26.6% and 23.6% in test [9]; 2.09% in [15].
